Results as given in the supplement of paper PMC10849652.
The other results are listed elsewhere or left out.

Chains of the proteins cited; added tags and fusions are not shown. Lines headed by an entry give the natural chain unless they say otherwise; changes in a name come on top.
UniProt Q9H6Q4: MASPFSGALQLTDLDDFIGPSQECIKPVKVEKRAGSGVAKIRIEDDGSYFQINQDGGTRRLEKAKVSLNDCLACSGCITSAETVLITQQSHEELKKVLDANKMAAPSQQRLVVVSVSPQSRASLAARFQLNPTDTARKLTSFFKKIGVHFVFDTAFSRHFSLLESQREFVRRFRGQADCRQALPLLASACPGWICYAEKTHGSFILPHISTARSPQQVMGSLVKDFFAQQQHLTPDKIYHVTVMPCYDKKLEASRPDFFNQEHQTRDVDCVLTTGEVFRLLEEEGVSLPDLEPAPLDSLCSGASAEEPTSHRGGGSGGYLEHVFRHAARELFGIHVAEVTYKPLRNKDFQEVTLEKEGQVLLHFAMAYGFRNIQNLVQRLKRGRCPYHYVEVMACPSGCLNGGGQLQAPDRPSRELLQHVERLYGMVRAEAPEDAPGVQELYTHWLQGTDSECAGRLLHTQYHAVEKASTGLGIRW
UniProt P35790, whole entry, looked up: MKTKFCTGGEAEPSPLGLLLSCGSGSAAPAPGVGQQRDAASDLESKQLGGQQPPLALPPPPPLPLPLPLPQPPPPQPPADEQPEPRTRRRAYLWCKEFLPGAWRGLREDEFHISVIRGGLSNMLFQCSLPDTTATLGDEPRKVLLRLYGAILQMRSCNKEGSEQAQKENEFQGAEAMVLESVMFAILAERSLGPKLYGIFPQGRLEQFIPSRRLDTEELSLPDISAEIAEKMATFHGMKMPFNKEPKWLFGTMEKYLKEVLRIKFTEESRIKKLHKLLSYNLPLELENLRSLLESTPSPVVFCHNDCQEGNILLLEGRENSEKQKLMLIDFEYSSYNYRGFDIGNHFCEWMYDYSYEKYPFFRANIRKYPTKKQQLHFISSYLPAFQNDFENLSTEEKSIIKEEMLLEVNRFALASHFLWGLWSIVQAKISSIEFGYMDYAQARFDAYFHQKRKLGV
UniProt Q99828: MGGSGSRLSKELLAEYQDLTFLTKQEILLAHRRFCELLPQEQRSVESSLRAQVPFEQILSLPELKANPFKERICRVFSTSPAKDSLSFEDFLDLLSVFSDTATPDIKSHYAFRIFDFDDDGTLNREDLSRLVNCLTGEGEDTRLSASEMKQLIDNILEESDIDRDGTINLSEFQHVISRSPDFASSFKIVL
UniProt O96017, whole entry, looked up: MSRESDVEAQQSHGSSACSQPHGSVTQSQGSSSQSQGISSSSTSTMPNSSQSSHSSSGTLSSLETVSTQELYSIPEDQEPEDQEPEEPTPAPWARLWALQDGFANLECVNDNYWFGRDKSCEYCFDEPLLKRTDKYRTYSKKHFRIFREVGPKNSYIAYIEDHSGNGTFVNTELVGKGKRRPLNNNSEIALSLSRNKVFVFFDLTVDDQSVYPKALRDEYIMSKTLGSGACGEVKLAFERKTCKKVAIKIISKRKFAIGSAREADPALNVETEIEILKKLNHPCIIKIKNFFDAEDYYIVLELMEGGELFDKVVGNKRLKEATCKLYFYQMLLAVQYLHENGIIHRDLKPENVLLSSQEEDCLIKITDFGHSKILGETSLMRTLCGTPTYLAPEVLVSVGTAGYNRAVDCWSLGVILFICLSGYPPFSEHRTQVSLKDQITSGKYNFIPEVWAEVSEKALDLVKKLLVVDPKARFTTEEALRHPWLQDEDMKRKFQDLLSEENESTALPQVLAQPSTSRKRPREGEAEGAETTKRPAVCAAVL
UniProt P61024, whole entry, looked up: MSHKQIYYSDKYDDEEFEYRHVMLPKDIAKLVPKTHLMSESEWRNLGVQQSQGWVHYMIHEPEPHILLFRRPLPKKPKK
UniProt O96005: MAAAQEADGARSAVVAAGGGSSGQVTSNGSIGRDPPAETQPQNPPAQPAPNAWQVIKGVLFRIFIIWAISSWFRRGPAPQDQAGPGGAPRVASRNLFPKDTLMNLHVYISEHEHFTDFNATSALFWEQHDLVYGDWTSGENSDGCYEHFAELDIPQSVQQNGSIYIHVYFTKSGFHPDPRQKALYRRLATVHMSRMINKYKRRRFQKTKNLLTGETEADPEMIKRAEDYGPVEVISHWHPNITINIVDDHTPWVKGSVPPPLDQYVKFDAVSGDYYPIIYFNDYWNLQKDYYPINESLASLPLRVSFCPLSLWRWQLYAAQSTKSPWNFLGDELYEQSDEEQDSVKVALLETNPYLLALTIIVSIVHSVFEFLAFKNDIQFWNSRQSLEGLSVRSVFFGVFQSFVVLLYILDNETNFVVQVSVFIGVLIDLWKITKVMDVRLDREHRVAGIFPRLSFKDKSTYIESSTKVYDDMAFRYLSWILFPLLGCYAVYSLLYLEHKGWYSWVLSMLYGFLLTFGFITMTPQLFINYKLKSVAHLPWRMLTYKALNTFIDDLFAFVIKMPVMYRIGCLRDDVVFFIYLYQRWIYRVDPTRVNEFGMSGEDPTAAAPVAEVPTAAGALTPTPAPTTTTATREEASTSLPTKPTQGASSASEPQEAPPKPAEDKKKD
UniProt Q8WUH1: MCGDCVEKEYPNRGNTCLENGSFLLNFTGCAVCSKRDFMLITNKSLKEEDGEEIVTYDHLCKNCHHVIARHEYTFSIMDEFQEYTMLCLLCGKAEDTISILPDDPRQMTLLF
UniProt O43633: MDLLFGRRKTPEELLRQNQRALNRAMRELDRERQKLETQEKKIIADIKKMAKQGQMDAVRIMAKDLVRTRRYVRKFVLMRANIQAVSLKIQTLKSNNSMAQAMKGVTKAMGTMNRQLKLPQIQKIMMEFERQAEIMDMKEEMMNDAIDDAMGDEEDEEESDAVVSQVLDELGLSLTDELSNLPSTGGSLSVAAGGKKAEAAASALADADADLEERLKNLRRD

Key:
Test in all cases: log2 fold change, soluble protein after heating vs DMSO (PISA); higher = thermal stabilisation; K562 lysate, 10 uM; active = over 0.2 and 3.5 SD of the protein, either way, in both replicates (recomputed)
vemurafenib = compound: CCCS(=O)(=O)Nc1ccc(F)c(C(=O)c2c[nH]c3ncc(-c4ccc(Cl)cc4)cc23)c1F [vemurafenib]
Outline: (§1)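 Values give the log-two fold change in thermal stability against solvent controls, from duplicates. Crude K562 extract at 1 mg/mL protein, made by dounce homogenisation in PBS pH 7.4 with 1 mM MgCl2, was treated with 10 μM compound for 30 min. After 3 min heating across 48°C-58°C, aliquots were pooled, adjusted to 0.5% NP-40 at 4°C and centrifuged at 21,000xg for 90 min. The supernatant was measured by TMTpro 16plex LC-MS/MS with channel sums equalised.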

[1] = compound: CCCS(=O)(=O)Nc1ccc(F)c(C(=O)c2c[nH]c3ncc(Cl)cc23)c1F
Outline: as §1

barasertib = compound: CCN(CCCOc1ccc2c(Nc3cc(CC(=O)Nc4cccc(F)c4)[nH]n3)ncnc2c1)CCOP(=O)(O)O [barasertib]
Outline: as §1

[2] = compound: CC[C@@H]1C(=O)N(C)c2cnc(Nc3ccc(C(=O)NC4CCN(C)CC4)cc3OC)nc2N1C1CCCC1
Outline: as §1

volasertib = compound: CC[C@@H]1C(=O)N(C)c2cnc(Nc3ccc(C(=O)N[C@H]4CC[C@H](N5CCN(CC6CC6)CC5)CC4)cc3OC)nc2N1C(C)C [volasertib]
Outline: as §1

[3] = compound: CCn1c(C(=O)N(C2CC2)C2CC2)cc2c3c(ncn3C)c(Nc3cc(C)n(C)n3)nc21
Outline: as §1

[4] = compound: CCn1cc(-c2ccnc3[nH]c(-c4cccc(CN(C)C)c4)cc23)c(-c2ccc(NC(=O)N(C)C)cc2)n1
Outline: as §1

[5] = compound: CN1CCC(CNc2ccc3ncc(-c4cccc(OC(F)(F)F)c4)n3n2)CC1
Outline: as §1

saracatinib = compound: CN1CCN(CCOc2cc(OC3CCOCC3)c3c(Nc4c(Cl)ccc5c4OCO5)ncnc3c2)CC1 [saracatinib]
Outline: as §1

sotrastaurin = compound: CN1CCN(c2nc(C3=C(c4c[nH]c5ccccc45)C(=O)NC3=O)c3ccccc3n2)CC1 [sotrastaurin]
Outline: as §1

alvocidib = compound: CN1CC[C@H](c2c(O)cc(O)c3c(=O)cc(-c4ccccc4Cl)oc23)[C@H](O)C1 [alvocidib]
Outline: as §1

Tubastatin A = compound: CN1CCc2c(c3ccccc3n2Cc2ccc(C(=O)NO)cc2)C1 [Tubastatin A]
Outline: as §1

[6] = compound: CNC(=O)C1=CC=CC=C1NC2=NC(=NC=C2Cl)NC3=C(C=C(C=C3)N4CCOCC4)OC
Outline: as §1

defactinib = compound: CNC(=O)c1ccc(Nc2ncc(C(F)(F)F)c(NCc3nccnc3N(C)S(C)(=O)=O)n2)cc1 [defactinib]
Outline: as §1

[7] = compound: CNc1nc(-c2ccc3c(N)n[nH]c3c2)cc(N2C[C@@H](C(=O)NC3CCCCC3)CC[C@H]2C)n1
Outline: as §1

encorafenib = compound: COC(=O)N[C@@H](C)CNc1nccc(-c2cn(C(C)C)nc2-c2cc(Cl)cc(NS(C)(=O)=O)c2F)n1 [encorafenib]
Outline: as §1

[8] = compound: COC(=O)[C@H](CCSC)NC(=O)C1=C(C=C(C=C1)NC[C@H](CS)N)C2=CC=CC=C2
Outline: as §1

alisertib = compound: COc1cc(Nc2ncc3c(n2)-c2ccc(Cl)cc2C(c2c(F)cccc2OC)=NC3)ccc1C(=O)O [alisertib]
Outline: as §1

[9] = compound: COc1cc2nc(-c3cc(F)ccc3O)nc(N[C@@H]3CNC[C@H]3C(C)(C)O)c2cc1OC
Outline: as §1

gefitinib = compound: COc1cc2ncnc(Nc3ccc(F)c(Cl)c3)c2cc1OCCCN1CCOCC1 [gefitinib]
Outline: as §1

Row | Target | log2 fold change (vemurafenib) | log2 fold change [1] | log2 fold change (barasertib) | log2 fold change [2] | log2 fold change (volasertib) | log2 fold change [3] | log2 fold change [4] | log2 fold change [5] | log2 fold change (saracatinib) | log2 fold change (sotrastaurin) | log2 fold change (alvocidib) | log2 fold change (Tubastatin A) | log2 fold change [6] | log2 fold change (defactinib) | log2 fold change [7] | log2 fold change (encorafenib) | log2 fold change [8] | log2 fold change (alisertib) | log2 fold change [9] | log2 fold change (gefitinib)
1 | CIAO3 (UniProt Q9H6Q4) | inactive: 0.018 | inactive: 0.016 | inactive: -0.036 | inactive: 0.009 | inactive: -0.014 | inactive: -0.026 | inactive: -0.093 | inactive: 0.035 | inactive: 0.008 | inactive: 0.013 | inactive: -0.016 | inactive: -0.03 | inactive: 0.041 | inactive: 0.01 | inactive: 0.071 | inactive: 0.009 | inactive: -0.013 | inactive: -0.023 | inactive: -0.016 | inactive: 0.021
2 | CHKA (UniProt P35790) | inactive: -0.039 | inactive: -0.057 | inactive: -0.044 | inactive: -0.012 | inactive: 0.002 | inactive: -0.009 | inactive: 0.051 | inactive: 0.028 | inactive: 0.052 | inactive: 0.029 | inactive: -0.025 | inactive: 0.12 | inactive: 0.027 | inactive: 0.066 | inactive: 0.132 | inactive: 0.013 | inactive: -0.009 | inactive: -0.02 | inactive: -0.011 | inactive: -0.053
3 | CIB1 (UniProt Q99828) | inactive: 0.096 | inactive: 0.027 | inactive: 0.155 | inactive: -0.013 | inactive: 0.008 | inactive: -0.047 | inactive: -0.028 | inactive: -0.028 | inactive: 0.017 | inactive: -0.077 | inactive: -0.003 | inactive: -0.037 | inactive: 0.01 | inactive: 0.038 | inactive: 0.041 | inactive: -0.001 | inactive: -0.215 | inactive: -0.031 | inactive: 0.072 | inactive: -0.124
4 | CHEK2 (UniProt O96017) | inactive: -0.059 | inactive: 0.042 | inactive: 0.087 | inactive: -0.06 | inactive: -0.044 | inactive: 0.051 | inactive: 0.08 | inactive: -0.057 | inactive: -0.036 | inactive: 0 | inactive: 0.093 | inactive: -0.007 | active: 0.207 | inactive: 0.022 | inactive: -0.085 | inactive: -0.022 | inactive: 0.092 | inactive: 0 | inactive: -0.052 | inactive: 0.09
5 | CKS1B (UniProt P61024) | inactive: -0.047 | inactive: -0.029 | inactive: 0.029 | inactive: -0.031 | inactive: -0.018 | inactive: -0.017 | active: 0.391 | inactive: -0.268 | inactive: 0.044 | inactive: 0.025 | inactive: 0.117 | inactive: -0.001 | inactive: 0.032 | inactive: 0.075 | inactive: -0.055 | inactive: 0.04 | inactive: -0.014 | inactive: -0.031 | inactive: -0.024 | inactive: 0.071
6 | CLPTM1 (UniProt O96005) | inactive: 0.047 | inactive: 0.007 | inactive: 0.04 | inactive: -0.014 | inactive: -0.066 | inactive: -0.033 | inactive: -0.017 | inactive: 0.088 | inactive: 0.006 | inactive: 0.058 | inactive: -0.086 | inactive: -0.103 | inactive: -0.007 | inactive: -0.02 | inactive: -0.005 | inactive: 0.004 | inactive: 0.006 | inactive: 0.032 | inactive: -0.025 | inactive: 0.031
7 | CHURC1 isoform 2 (UniProt Q8WUH1) | inactive: 0.019 | inactive: -0.166 | inactive: 0.194 | inactive: 0.038 | inactive: 0.129 | inactive: 0.018 | inactive: -0.108 | inactive: 0.024 | inactive: -0.071 | inactive: -0.013 | inactive: 0.002 | inactive: 0.002 | inactive: 0 | inactive: 0.051 | inactive: 0.024 | inactive: -0.068 | inactive: -0.005 | inactive: 0.013 | inactive: -0.145 | inactive: -0.025
8 | CHMP2A (UniProt O43633) | inactive: -0.006 | inactive: -0.01 | inactive: -0.103 | inactive: 0.013 | inactive: 0.049 | inactive: -0.006 | inactive: -0.111 | inactive: 0.023 | inactive: -0.011 | inactive: -0.023 | inactive: -0.043 | inactive: 0.017 | inactive: 0.042 | inactive: 0.009 | inactive: -0.001 | inactive: 0.026 | inactive: -0.031 | inactive: 0.017 | inactive: -0.033 | inactive: 0.006
